According to ChEMBL document CHEMBL1287793, “Green synthesis and biological evaluation of some novel azoles as antimicrobial agents” (2010):

System: Candida albicans
Assay: Antimicrobial activity against Candida albicans after 18 to 20 hrs at 37degC by disc diffusion method
Type: functional
Method in brief: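 Fungal inoculum of 1 × 10⁶/mL spread on potato dextrose agar. 6 mm filter paper discs received sample dissolved in DMSO. Nystatin at 100 U/disc was the antifungal control. Plates incubated 18–20 h at 37 °C, then the zone of inhibition was measured in mm.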

NYSTATIN
inhibition zone (IZ): 22 mm
